Source: US8883741B2, “Stimulator of genital, sexual and reproductive function” (Bio Peptid Company Limited, priority 2009, dated 2014)
Not every detail of the peptide structures is certain; ends, links or a residue may be inferred. Where no end group is shown, it is not given here.

Test system: women with orgasmic dysfunction
Assay: Sexual function on quantified SFW scale, Group III
Assay type: in vivo, human
[1] = Group III n=31, before treatment 0.0%
[2] = Group III n=31, before treatment 2
[3] = Group III n=31, before treatment 3.2
[4] = Group III n=31, before treatment 6.5%
[5] = Group III n=31, before treatment 9
[6] = Group III n=31, before treatment 20
[7] = Group III n=31, before treatment 29.0%
[8] = Group III n=31, before treatment 64.5%
[9] = Group III, after a course of treatment

Substance: TKPRPGP [heptapeptide, Thr-Lys-Pro-Arg-Pro-Gly-Pro]
- General physical state after sex acts score 5 (satisfaction and fatigue): percent of patients after treatment [1]: (25.8%)
- Libido score 5 (daily): percent of patients after treatment [1]: (25.8%)
- Libido score 6 (several times a day): percent of patients after treatment [1]: (0.0%)
- Lubrication score 5 (sets in rapidly): percent of patients after treatment [1]: (19.4%)
- Mood after sex acts score 5 (feeling of gratitude toward man): percent of patients after treatment [1]: (25.8%)
- Onset of orgasm score 2 (only during erotic dreams): percent of patients after treatment [1]: (0.0%)
- Onset of orgasm score 5 (more than 80% of the sex acts): percent of patients after treatment [1]: (25.8%)
- Attitude toward sexual activity score 2 (aversion to the sex act): number of patients after treatment [2]: 2
- General physical state after sex acts score 2 (complete physical indifference): number of patients after treatment [2]: 2
- Level of sexual activity score 4 (weekly): number of patients after treatment [2]: 10
- Libido score 2 (yearly): number of patients after treatment [2]: 2
- Lubrication score 2 (rarely emerges): number of patients after treatment [2]: 2
- Mood after sex acts score 2 (escape from obligation): number of patients after treatment [2]: 2
- Onset of orgasm score 1 (never experienced orgasm): number of patients after treatment [2]: 2
- Level of sexual activity, score after treatment (Group III n=31, before treatment 2.9): 3.2 points
- Attitude toward sexual activity, score after treatment [3]: 4.0 points
- General physical state after sexual acts, score after treatment [3]: 4.0 points
- Libido, score after treatment [3]: 4.0 points
- Lubrication, score after treatment [3]: 3.9 points
- Onset of orgasm, score after treatment [3]: 3.9 points
- Mood after sexual acts, score after treatment (Group III n=31, before treatment 3.4): 3.9 points
- Level of sexual activity score 2 (yearly): number of patients after treatment (Group III n=31, before treatment 4): 4
- Attitude toward sexual activity score 2 (aversion to the sex act): percent of patients after treatment [4]: (6.5%)
- General physical state after sex acts score 2 (complete physical indifference): percent of patients after treatment [4]: (6.5%)
- Level of sexual activity score 4 (weekly): percent of patients after treatment [4]: (32.3%)
- Libido score 2 (yearly): percent of patients after treatment [4]: (6.5%)
- Lubrication score 2 (rarely emerges): percent of patients after treatment [4]: (6.5%)
- Mood after sex acts score 2 (escape from obligation): percent of patients after treatment [4]: (6.5%)
- Onset of orgasm score 1 (never experienced orgasm): percent of patients after treatment [4]: (6.5%)
- Lubrication score 4 (depends on presence of attraction): number of patients after treatment (Group III n=31, before treatment 7): 19
- Libido score 4 (weekly): number of patients after treatment (Group III n=31, before treatment 8): 17
- Attitude toward sexual activity score 4 (enjoyment depends on menesis): number of patients after treatment [5]: 17
- General physical state after sex acts score 4 (sensation of a release of arousal): number of patients after treatment [5]: 17
- Onset of orgasm score 4 (in half of the sex acts): number of patients after treatment [5]: 15
- Level of sexual activity score 2 (yearly): percent of patients after treatment (Group III n=31, before treatment 12.9%): (12.9%)
- Mood after sex acts score 4 (recognition of duty fulfilled): number of patients after treatment (Group III n=31, before treatment 13): 15
- Mood after sex acts score 3 (complete indifference): number of patients after treatment (Group III n=31, before treatment 16): 6
- Attitude toward sexual activity score 3 (indifference toward the sex act): number of patients after treatment [6]: 4
- General physical state after sex acts score 3 (unfulfilled arousal): number of patients after treatment [6]: 4
- Onset of orgasm score 3 (single occurrences): number of patients after treatment [6]: 6
- Libido score 3 (monthly): number of patients after treatment (Group III n=31, before treatment 21): 4
- Lubrication score 3 (with protracted stimulation): number of patients after treatment (Group III n=31, before treatment 22): 4
- Lubrication score 4 (depends on presence of attraction): percent of patients after treatment (Group III n=31, before treatment 22.6%): (61.3%)
- Level of sexual activity score 3 (monthly): number of patients after treatment (Group III n=31, before treatment 25): 17
- Libido score 4 (weekly): percent of patients after treatment (Group III n=31, before treatment 25.8%): (54.8%)
- Attitude toward sexual activity score 4 (enjoyment depends on menesis): percent of patients after treatment [7]: (54.8%)
- General physical state after sex acts score 4 (sensation of a release of arousal): percent of patients after treatment [7]: (54.8%)
- Onset of orgasm score 4 (in half of the sex acts): percent of patients after treatment [7]: (48.4%)
- Mood after sex acts score 4 (recognition of duty fulfilled): percent of patients after treatment (Group III n=31, before treatment 41.9%): (48.4%)
- Mood after sex acts score 3 (complete indifference): percent of patients after treatment (Group III n=31, before treatment 51.6%): (19.4%)
- Attitude toward sexual activity score 3 (indifference toward the sex act): percent of patients after treatment [8]: (12.9%)
- General physical state after sex acts score 3 (unfulfilled arousal): percent of patients after treatment [8]: (12.9%)
- Onset of orgasm score 3 (single occurrences): percent of patients after treatment [8]: (19.4%)
- Libido score 3 (monthly): percent of patients after treatment (Group III n=31, before treatment 67.7%): (12.9%)
- Lubrication score 3 (with protracted stimulation): percent of patients after treatment (Group III n=31, before treatment 71.0%): (12.9%)
- Level of sexual activity score 3 (monthly): percent of patients after treatment (Group III n=31, before treatment 80.6%): (54.8%)
- Attitude toward sexual activity: patients with onset of effect, number (%) (Group III n=31, day 1): 6 (19.4%)
- General physical state after sexual acts: patients with onset of effect, number (%) (Group III n=31, day 1): 6 (19.4%)
- Level of sexual activity: patients with onset of effect, number (%) (Group III n=31, day 1): 6 (19.4%)
- Lubrication: patients with onset of effect, number (%) (Group III n=31, day 1): 6 (19.4%)
- Mood after sexual acts: patients with onset of effect, number (%) (Group III n=31, day 1): 6 (19.4%)
- Onset of orgasm: patients with onset of effect, number (%) (Group III n=31, day 1): 6 (19.4%)
- Libido: patients with onset of effect, number (%) (Group III n=31, day 1 of drug administration): 8 (100%)
- Attitude toward sexual activity: patients with onset of effect, number (%) (Group III n=31, day 5): 8 (25.8%)
- General physical state after sexual acts: patients with onset of effect, number (%) (Group III n=31, day 5): 8 (25.8%)
- Level of sexual activity: patients with onset of effect, number (%) (Group III n=31, day 5): 8 (25.8%)
- Libido: patients with onset of effect, number (%) (Group III n=31, day 5): 12 (38.7%)
- Lubrication: patients with onset of effect, number (%) (Group III n=31, day 5): 12 (38.7%)
- Mood after sexual acts: patients with onset of effect, number (%) (Group III n=31, day 5): 8 (25.8%)
- Onset of orgasm: patients with onset of effect, number (%) (Group III n=31, day 5): 12 (38.7%)
- Attitude toward sexual activity: patients with onset of effect, number (%) (Group III n=31, day 10): 16 (51.6%)
- General physical state after sexual acts: patients with onset of effect, number (%) (Group III n=31, day 10): 14 (45.2%)
- Level of sexual activity: patients with onset of effect, number (%) (Group III n=31, day 10): 8 (25.8%)
- Libido: patients with onset of effect, number (%) (Group III n=31, day 10): 21 (67.7%)
- Lubrication: patients with onset of effect, number (%) (Group III n=31, day 10): 16 (51.6%)
- Mood after sexual acts: patients with onset of effect, number (%) (Group III n=31, day 10): 12 (38.7%)
- Onset of orgasm: patients with onset of effect, number (%) (Group III n=31, day 10): 14 (45.2%)
- Attitude toward sexual activity: patients with onset of effect, number (%) (Group III n=31, day 15): 24 (77.4%)
- General physical state after sexual acts: patients with onset of effect, number (%) (Group III n=31, day 15): 24 (77.4%)
- Level of sexual activity: patients with onset of effect, number (%) (Group III n=31, day 15): 8 (25.8%)
- Libido: patients with onset of effect, number (%) (Group III n=31, day 15): 25 (80.6%)
- Lubrication: patients with onset of effect, number (%) (Group III n=31, day 15): 24 (77.4%)
- Mood after sexual acts: patients with onset of effect, number (%) (Group III n=31, day 15): 20 (64.5%)
- Onset of orgasm: patients with onset of effect, number (%) (Group III n=31, day 15): 22 (71.0%)
- Patients in whom libido began to be exhibited weekly [9]: 73.9%
- Patients in whom lubrication began to set in very rapidly [9]: 19.4%
- Patients with onset of orgasm in half of all sexual contacts or more often [9]: 63.6%
- Patients in whom unfulfilled sexual arousal after the sex act remained (Group III, after a course of treatment, before 71.0%): 27.3%
- Patients with an indifferent attitude toward sex after treatment (Group III, decreased from 64.5): 12.9%
